Test results taken from article PMC9616960.
Results are given in words; binding and its absence hold for the method and conditions named. In cells and extracts the contact can be indirect. A yes stands for co-enrichment or nearness to the bait. Other partners may have been found.

T1: Neph1 (not stated (endogenous in glomeruli of rat or mouse)) (UniProt Q6X936)
T1 sequence: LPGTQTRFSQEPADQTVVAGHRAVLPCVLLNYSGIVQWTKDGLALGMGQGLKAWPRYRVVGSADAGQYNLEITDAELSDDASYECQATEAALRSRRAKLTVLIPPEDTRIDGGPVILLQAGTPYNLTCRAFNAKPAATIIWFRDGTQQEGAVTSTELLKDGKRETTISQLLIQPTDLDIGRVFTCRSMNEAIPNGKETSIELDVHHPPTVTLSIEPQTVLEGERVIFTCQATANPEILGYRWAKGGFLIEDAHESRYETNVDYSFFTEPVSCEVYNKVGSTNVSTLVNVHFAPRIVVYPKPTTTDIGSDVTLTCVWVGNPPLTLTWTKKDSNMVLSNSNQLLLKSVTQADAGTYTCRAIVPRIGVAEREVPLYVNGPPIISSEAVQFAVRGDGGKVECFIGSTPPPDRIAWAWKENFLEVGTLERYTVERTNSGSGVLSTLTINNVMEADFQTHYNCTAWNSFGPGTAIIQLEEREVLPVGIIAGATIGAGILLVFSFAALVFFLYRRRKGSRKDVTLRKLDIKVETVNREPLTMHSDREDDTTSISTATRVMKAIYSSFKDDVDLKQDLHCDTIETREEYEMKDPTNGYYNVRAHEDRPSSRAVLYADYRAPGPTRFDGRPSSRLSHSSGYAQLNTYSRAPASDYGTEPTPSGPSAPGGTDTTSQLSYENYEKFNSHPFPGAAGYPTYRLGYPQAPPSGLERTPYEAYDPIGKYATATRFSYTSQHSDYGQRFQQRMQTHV

T2: Nephrin (not stated (endogenous in glomeruli of rat or mouse)) (UniProt Q9R044)
T2 sequence: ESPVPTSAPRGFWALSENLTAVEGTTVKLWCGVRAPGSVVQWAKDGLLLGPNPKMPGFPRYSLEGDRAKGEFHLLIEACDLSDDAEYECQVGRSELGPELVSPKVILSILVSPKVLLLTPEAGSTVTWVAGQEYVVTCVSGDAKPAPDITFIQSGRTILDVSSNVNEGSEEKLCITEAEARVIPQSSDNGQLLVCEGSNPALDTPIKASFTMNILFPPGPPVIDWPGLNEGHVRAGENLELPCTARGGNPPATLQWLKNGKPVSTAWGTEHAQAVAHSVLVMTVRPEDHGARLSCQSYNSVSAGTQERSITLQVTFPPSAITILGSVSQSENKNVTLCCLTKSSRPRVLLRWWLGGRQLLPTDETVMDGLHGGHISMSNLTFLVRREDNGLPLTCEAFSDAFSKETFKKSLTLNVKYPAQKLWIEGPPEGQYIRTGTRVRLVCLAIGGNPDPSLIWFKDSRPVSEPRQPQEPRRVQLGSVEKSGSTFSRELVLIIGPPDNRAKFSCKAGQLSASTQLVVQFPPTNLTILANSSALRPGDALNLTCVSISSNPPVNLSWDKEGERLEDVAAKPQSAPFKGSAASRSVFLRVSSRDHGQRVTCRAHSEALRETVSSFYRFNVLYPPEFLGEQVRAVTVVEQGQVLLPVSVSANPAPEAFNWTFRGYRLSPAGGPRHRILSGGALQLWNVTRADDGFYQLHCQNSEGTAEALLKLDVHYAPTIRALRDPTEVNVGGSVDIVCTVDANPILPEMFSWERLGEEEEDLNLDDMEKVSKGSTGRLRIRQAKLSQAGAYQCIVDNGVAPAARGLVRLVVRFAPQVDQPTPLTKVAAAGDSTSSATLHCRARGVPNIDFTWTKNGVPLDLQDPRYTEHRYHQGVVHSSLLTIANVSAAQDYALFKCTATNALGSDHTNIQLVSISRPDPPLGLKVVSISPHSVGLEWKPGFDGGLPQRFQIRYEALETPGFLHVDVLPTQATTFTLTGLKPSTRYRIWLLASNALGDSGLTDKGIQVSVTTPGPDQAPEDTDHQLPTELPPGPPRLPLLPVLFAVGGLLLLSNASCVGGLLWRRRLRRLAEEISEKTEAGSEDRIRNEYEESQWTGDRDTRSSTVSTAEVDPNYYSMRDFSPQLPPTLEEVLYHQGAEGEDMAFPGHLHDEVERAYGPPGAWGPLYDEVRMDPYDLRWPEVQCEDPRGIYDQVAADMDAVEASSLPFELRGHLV

B1: Dendrin (protein, UniProt P50617 1-707)
chain: MLDGPLFSEGPDSPRELQDEESGSCLWVQKSKLLVIEVKTISCHYSRRAASRQSMDIQASYWARGPQNRTCRLRPGSPEPPPRRPWASRVLQEATNWRAGPPAEVRAREQEKRKAASQEREAKETERKRRKAGGARRSPLGQPRPELRNALRAAQPTGFPVFSRPERFGQVGRAPRPSALPQGDPGVAWAGPWGGRRPGPPSYEAHLLLRGAAGTAPRRRWDRPPPYVAPPSYEGPHRTLGTKRGPELSRAPTSSAPVPATTRTEGGRTKKRLDPRIYRDVLGAWGLRQGRGLLGGAPGCAAARARPESCKGAVEKSSGLAAAGLNSGGDGHSQAKTTGPVTEVALSGSTISSPPRPVPRSRQHLRGSRKGKEGSEEMWLPTCWLSSPKKPPVRHSQTLPRPWAPGGTGWKESLGQREGTEHETLEVWKVTRRAHTLPRSSRGPAGREGIFVIDATCVVIKSQYVPTPRTQQRQLAPSGESCIVSDSLRQPKPCLEEEGKGAAANPSVCQKRLLSSRVLNPPSEGREFEAEGRQQGDSSLEERSSSGLGFPVGEVNPRDAPTHPGSPEHSTLGPAAPGCAGSVKGPEAAGVPRRAGGGWARTPGPYAGALREAVSRIRRHTAPDSDSDEAEDLSAHSGSSDGSDTDAPGASWRNERTLPAVGNTRPREGGKTAELGDSIGEILDVISQTEEGLVREDTRKTPQGKRE
B2: Integral membrane protein 2B (protein, UniProt Q5XIE8 1-266)
chain: MVKVTFNSALAQKEAKKDEPKSSEEALIAPPDAVAVDCKDPDDVVPVGQRRAWCWCMCFGLAFMLAGVILGGAYLYKYFALQPDDVYYCGLKYIKDDVILSEPSADAPAARYQTIEENIKIFEEDAVEFISVPVPEFADSDPANIVHDFNKKLTAYLDLNLDKCYVIPLNTSIVMPPRNLLELLINIKAGTYLPQSYLIHEHMVITDRIENVDHLGFFIYRLCHDKETYKLQRRETIRGIQKREASNCFTIRHFENKFAVETLICS
B3: Lipolysis-stimulated lipoprotein receptor (protein, UniProt Q9WU74 36-593)
chain: AIQVTVSDPYHVVILFQPVTLPCTYQMSNTLTVPIVIWKYKSFCRDRIADAFSPASVDNQLNAQLAAGNPGYNPYVECQDSVRTVRVVATKQGNAVTLGDYYQGRRITITGNADLTFEQTAWGDSGVYYCSVVSAQDLDGNNEAYAELIVLGRTSEAPELLPGFRAGPLEDWLFVVVVCLASLLLFLLLGICWCQCCPHTCCCYVRCPCCPDKCCCPEALYAAGKAATSGVPSIYAPSIYTHLSPAKTPPPPPAMIPMGPPYGYPGDFDRHSSVGGHSSQVPLLRDVDGSVSSEVRSGYRIQANQQDDSMRVLYYMEKELANFDPSRPGPPNGRVERAMSEVTSLHEDDWRSRPSRAPALTPIRDEEWNRHSPQSPRTWEQEPLQEQPRGGWGSGRPRARSVDALDDINRPGSTESGRSSPPSSGRRGRAYAPPRSRSRDDLYDPDDPRDLPHSRDPHYYDDIRSRDPRADPRSRQRSRDPRDAGFRSRDPQYDGRLLEEALKKKGSGERRRVYREEEEEEEGQYPPAPPPYSETDSQASRERRLKKNLALSRESLVV
B4: Basal cell adhesion molecule (protein, UniProt Q9ESS6 26-624)
chain: ELHVSVPPRVEVMRGEQIALDCTPREHPENYVLEWLLVDASGARHRLASVEPQGSEFLGTIHNSRGRRPPYKIDSLGRLVIAEAQVGDERDYVCVVKAGAAGTSEATSSVRVFATPEATEVAPNKGTLSVMEQFAQEIATCSSNNGNPVPRITWYQNGQRLDVPMELNSKGYMTSRTVREASGLYSLTSTLYLRLHKEDRDASFHCAAHYDLPSGQHGRLDSHTFRLTLHYPTEHVEFWVGSPSTTEGWVREGDAVQLLCQGDGSPSPEYSFFREQGNQEEQLNVNLKGNLTLEGVHRSQSGIYGCRVEDYDADEEVQLVKKLKLHVAYLDPLELSVPEEFSVFLNSSGTVVNCSARGLPAPIVRWTKDSVTVADGPILSLDSVTFDSAGTYTCEASTPTVPLLSRTQSFQLVVQGAPELKPNEIKPKSGTSWTEGDEVMLTCSARGFPEPKLTWSQRGDTTPAEPPFEGRGWMSSSLTLKVTSALSREGVSCEASNIHGKNGHVFHFGSVAPQTAQAGVAVMAVAVSVGLLLLVVAAFYCMRRKGRPGCCQRAEKGAPPAREPELSHSGSERPEHTGLLMGGPSGGGRGGNGGFGDEC
B5: Claudin-15 (protein, UniProt D3ZQJ0 1-227)
chain: MSIAVETFGFFMSALGLLMLGVTLPNSYWRVSTVHGNVITTNTIFENLWYSCATDSLGVSNCWDFPSMLALSGYVQGCRALMITAILLGFLGLFLGMVGLRCTNVGNIDLSRKAKLLAIAGAFHILAGACGMVAISWYAVNITTDFFNPLYVGTKYELGSALYLGWSASLLSILGGICVFSTCCCDSKEDPATRVGLPYKPSTVVTARATSDESDVSFGKYGKNAYV
B6: atrial natriuretic peptide-receptor C (protein, UniProt P41740 41-535)
chain: EALAAQKIEVLVLLPRDDSYLFSLARVRPAIEYALRSVEGNGTGRKLLPPGTRFQVAYEDSDCGNRALFSLVDRVAAARGAKPDLILGPVCEYAAAPVARLASHWDLPMLSAGALAAGFQHKDTEYSHLTRVAPAYAKMGEMMLALFRHHHWSRAALLYSDDKLERNCYFTLEGVHEVFQEEGLHTSAYNFDETKDLDLDDIVRYIQGSERVVIMCASGDTIRRIMLAVHRHGMTSGDYAFFNIELFNSSSYGDGSWKRGDKHDFEAKQAYSSLQTVTLLRTAKPEFEKFSMEVKSSVEKQGLNEEDYVNMFVEGFHDAILLYVLALHEVLRAGYSKKDGGKIIQQTWNRTFEGIAGQVSIDANGDRYGDFSVVAMTDTEAGTQEVIGDYFGKEGRFKMRSNVKYPWGSLKLRIDETRIVEHTNSSPCKSCGLEESAVTGIVVGALLGAGLLMAFYFFRKKYRITIERRNHQEESNIGKHRELREDSIRSHFSVA
B7: Choline transporter-like protein 2 (protein, UniProt B4F795 1-705)
chain: MGKDSQHYYGKHGTPQKYDPTFKGPIYNRGCTDIICCVLLFLAIVGYVAVGIIAWTHGDPRKVIYPTDSRGEFCGQKGTKNADKPFLFYFNIVKCASPLVLLEFHCPTPQICVKQCPDRYLTFLSARNSRDFDYYKQFCVPGFKNNKGVAEVLRDGECPAVIIPSKPLAQRCFPAIHASKGVLMVGNETTYEDGHGTRKNVTDLVEGAKKANKVLEARQLAMQIFEDYTVSWYWIVIGLVIAMLLSLMFIVLLRFLAGVMVWVMIVMVILVLGYGIFHCYAEYSRLRGEAGSDVSLVDLGFQTDLRVYLHLRQTWMAFMIILSILEVVIILLLIFLRKRILIAIALIKEASRAVGHVMCSMLYPLVTFFLLCLCIAYWASTSVFLSTSNVAVYKIVDDTPCPLLGKTCNPETFPLNESRQCPNGRCQFAFYGGESTYHRALLGLQIFNAFMFFWLANFVLALGQVTLAGAFASYYWAMRKPDDMPAFPLFSAFGRALRYHTGSLAFGSLILAIVQIIRVMLEYLDQRLKAAQNKFAKFLMVCLKCCFWCLEKFIKFLNRNAYIMIAIYGTNFCTSARNAFFLLMRNIIRVAVLDKVTDFLFLLGKLLIVGSVGILAFFFFTHRIRIVQDTAPPLNYYWVPILTVIIGSYLIAHGFFSVYGMCVDTLFLCFLEDLERNDGSAERPYFMSSTLKKLLNKTNKKVAES

Columns and labels:
[1] = target: T1, Neph1 (not stated (endogenous in glomeruli of rat or mouse)); assay: affinity purification with mass spectrometry; three anti-Nephrin/Neph1 ABs immobilised on magnetic beads, two hours with CL-47 or CL-91 solubilisates of glomerular membrane fractions; eluates by nano-LC-MS/MS; specific: tnR >=0.2 against three target-unrelated ABs/IgG, in at least two anti-Nephrin/Neph1 APs
[2] = target: T2, Nephrin (not stated (endogenous in glomeruli of rat or mouse)); assay: as above

Row | Binder | binding [1] | binding [2]
1 | B1 | binds | binds
2 | B2 | binds | binds
3 | B3 | binds | binds
4 | B4 | binds | binds
5 | B5 | binds | binds
6 | B6 | binds | binds
7 | B7 | binds | binds
